Results are given in words; binding and its absence hold for the method and conditions named. Binding seen in cells or lysates may run through a third protein. Some entries that bind do so weakly or less than the wild type. Tags and fused reporters may be left off the sequences shown.
Experiments:
Test in all cases: pull-down; HEK293T cells cotransfected with the SFB-tagged enzyme and Myc-tagged NME4 or mNME4; lysates in NETN buffer (20 mM Tris-HCl pH 8.0, 100 mM NaCl, 1 mM EDTA, 0.5% Nonidet P-40) incubated with S beads 2 h at 4 °C; blots with anti-Flag and anti-Myc
[1] = target: T1, SFB-tagged NUDT19 (human) (UniProt A8MXV4)
T1 sequence: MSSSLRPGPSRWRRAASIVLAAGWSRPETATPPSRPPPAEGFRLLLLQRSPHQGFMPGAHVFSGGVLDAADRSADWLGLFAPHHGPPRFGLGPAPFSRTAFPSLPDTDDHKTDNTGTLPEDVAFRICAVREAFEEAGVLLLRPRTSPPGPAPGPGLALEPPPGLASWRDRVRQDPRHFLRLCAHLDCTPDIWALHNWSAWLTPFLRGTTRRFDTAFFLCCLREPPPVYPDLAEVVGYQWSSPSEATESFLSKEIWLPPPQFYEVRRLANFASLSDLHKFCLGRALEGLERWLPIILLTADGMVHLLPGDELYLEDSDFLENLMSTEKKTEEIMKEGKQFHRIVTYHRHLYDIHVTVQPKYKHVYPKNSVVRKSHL

The chains behind the UniProt entries cited, without tags or fusion partners. Residues count along the entry.
UniProt P13196, residues 57-640: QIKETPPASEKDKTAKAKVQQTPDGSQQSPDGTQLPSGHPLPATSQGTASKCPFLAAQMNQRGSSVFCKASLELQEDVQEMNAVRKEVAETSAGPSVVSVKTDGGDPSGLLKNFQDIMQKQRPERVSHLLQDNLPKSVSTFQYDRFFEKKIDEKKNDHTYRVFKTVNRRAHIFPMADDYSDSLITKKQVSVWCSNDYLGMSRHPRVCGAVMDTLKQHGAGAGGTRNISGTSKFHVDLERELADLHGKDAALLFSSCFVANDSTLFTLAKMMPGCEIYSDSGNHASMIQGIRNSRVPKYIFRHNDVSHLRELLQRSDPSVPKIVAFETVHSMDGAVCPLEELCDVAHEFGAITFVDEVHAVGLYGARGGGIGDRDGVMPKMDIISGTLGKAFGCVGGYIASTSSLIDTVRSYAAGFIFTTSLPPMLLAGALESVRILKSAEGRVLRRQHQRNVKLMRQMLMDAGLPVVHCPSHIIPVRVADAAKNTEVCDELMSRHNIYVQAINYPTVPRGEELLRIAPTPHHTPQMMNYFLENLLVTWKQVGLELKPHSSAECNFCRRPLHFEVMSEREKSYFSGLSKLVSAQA

[2] = target: T2, SFB-tagged MLYCD (human) (UniProt O95822)
T2 sequence: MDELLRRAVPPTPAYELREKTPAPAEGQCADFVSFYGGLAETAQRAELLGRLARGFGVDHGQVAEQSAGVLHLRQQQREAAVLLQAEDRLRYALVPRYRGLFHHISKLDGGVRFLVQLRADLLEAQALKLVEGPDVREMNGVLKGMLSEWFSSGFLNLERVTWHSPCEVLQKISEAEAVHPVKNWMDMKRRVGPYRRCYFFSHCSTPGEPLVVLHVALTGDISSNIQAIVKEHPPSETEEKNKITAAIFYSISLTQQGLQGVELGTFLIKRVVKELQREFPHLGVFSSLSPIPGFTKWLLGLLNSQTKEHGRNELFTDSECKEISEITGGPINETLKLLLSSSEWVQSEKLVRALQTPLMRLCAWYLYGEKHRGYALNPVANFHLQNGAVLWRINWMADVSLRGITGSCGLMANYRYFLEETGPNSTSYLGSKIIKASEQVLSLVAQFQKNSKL

[3] = target: T3, SFB-tagged ALKBH7 (human) (UniProt Q9BT30)
T3 sequence: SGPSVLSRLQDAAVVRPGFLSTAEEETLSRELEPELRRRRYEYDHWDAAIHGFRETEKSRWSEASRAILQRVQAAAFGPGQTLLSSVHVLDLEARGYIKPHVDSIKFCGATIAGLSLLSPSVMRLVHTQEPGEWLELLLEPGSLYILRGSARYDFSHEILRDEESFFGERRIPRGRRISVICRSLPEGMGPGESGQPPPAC

[4] = target: SFB-tagged ALAS1 (human) (UniProt P13196)
[5] = target: T4, SFB-tagged CRAT (human) (UniProt P43155)
T4 sequence: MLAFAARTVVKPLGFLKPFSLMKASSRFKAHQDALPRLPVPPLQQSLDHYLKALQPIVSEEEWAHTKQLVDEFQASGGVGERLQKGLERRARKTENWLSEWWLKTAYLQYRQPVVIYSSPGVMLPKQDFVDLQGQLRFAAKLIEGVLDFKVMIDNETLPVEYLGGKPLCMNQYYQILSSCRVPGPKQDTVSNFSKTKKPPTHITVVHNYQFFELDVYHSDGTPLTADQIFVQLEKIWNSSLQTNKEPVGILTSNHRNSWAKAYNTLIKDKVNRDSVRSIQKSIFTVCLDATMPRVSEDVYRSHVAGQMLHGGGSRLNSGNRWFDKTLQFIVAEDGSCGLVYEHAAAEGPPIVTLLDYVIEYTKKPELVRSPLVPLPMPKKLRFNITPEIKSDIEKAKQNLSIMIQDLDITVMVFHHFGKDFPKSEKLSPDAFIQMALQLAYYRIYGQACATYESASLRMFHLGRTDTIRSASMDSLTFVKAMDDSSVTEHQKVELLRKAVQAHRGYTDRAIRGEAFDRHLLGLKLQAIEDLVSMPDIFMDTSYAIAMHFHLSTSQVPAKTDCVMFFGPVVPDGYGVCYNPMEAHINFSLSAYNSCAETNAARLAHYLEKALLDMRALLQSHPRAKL

[6] = target: T5, SFB-tagged MMUT (human) (UniProt P22033)
T5 sequence: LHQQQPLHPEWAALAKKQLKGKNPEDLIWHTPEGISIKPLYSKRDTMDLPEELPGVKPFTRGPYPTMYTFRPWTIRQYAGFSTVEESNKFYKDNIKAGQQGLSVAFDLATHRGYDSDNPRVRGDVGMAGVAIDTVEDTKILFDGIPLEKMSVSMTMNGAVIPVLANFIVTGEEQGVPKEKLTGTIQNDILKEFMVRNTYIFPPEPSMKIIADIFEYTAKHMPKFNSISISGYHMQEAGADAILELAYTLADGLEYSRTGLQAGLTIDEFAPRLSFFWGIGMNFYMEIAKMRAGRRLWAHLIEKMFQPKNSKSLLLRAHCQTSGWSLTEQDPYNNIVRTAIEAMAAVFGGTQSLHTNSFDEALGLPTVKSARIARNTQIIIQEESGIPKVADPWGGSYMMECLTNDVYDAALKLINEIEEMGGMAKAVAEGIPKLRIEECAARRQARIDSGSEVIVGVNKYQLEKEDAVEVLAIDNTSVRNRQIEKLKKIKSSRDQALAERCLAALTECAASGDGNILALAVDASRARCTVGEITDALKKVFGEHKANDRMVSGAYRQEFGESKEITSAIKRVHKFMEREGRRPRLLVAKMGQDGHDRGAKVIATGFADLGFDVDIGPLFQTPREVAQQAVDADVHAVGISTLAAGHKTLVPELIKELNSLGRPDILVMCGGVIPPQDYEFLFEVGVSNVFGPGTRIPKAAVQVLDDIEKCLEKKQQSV

[7] = target: T6, SFB-tagged ACSF3 (human) (UniProt Q4G176)
T6 sequence: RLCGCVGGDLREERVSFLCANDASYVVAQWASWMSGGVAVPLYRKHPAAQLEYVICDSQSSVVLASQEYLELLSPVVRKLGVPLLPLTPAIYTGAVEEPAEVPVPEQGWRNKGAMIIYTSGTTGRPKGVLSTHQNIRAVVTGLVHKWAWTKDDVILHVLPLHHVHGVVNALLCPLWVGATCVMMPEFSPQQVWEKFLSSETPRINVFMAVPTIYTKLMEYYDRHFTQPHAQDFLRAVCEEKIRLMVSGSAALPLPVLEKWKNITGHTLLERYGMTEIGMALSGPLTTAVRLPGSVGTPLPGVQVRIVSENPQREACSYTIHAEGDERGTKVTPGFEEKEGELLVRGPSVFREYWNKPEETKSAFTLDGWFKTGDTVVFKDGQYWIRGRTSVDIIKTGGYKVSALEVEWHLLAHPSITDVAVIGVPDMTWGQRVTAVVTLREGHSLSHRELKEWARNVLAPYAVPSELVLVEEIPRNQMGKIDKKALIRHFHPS

binding [1]: binds | binding [2]: binds | binding [3]: binds | binding [4]: binds | binding [5]: binds | binding [6]: binds | binding [7]: binds
B1: Myc-tagged full-length NME4 (FL) (protein, UniProt O00746 29-187)
chain: GSGGPSWTRERTLVAVKPDGVQRRLVGDVIQRFERRGFTLVGMKMLQAPESVLAEHYQDLRRKPFYPALIRYMSSGPVVAMVWEGYNVVRASRAMIGHTDSAEAAPGTIRGDFSVHISRNVIHASDSVEGAQREIQLWFQSSELVSWADGGQHSSIHPA
